According to the supplement of paper PMC3682954:
Structures can show the parent of a compound that is named as a salt. ± gives the standard deviation of the averaged measurements. Some of the results follow. Most values come without repeats; read them as rough.

Test system: RAW 264.7
Assay: HMGB1-induced TNF-alpha production relative to HMGB1-stimulated control; higher = more TNF-alpha secretion (less inhibition)
Details: stimulus: HMGB1 5 ug/ml, 18 h
[1] = compound concentration: 1 ug/ml

SMILES | HMGB1-induced TNF-alpha production (compound concentration: 3 uM) [%] | HMGB1-induced TNF-alpha production [1] [%]
CN1CCN(C2=Nc3cc(F)ccc3Cc3ccccc32)CC1 [Fluperlapine] | 86 ± 20 | –
O=c1c(O)c(-c2ccc(O)cc2)oc2cc(O)ccc12 | – | 39.3
COc1cc([S+](C)[O-])ccc1-c1nc2cccnc2[nH]1 (configuration not stated) | 76.6 | –
COc1cc([S+](C)[O-])ccc1-c1nc2cccnc2[nH]1 (configuration not stated) [Sulmazole] | 84.2 | –
COc1ccc(-c2cc(=O)c3c(O)c(OC)c(O[C@@H]4O[C@H](CO[C@@H]5O[C@@H](C)[C@H](O)[C@@H](O)[C@H]5O)[C@@H](O)[C@H](O)[C@H]4O)cc3o2)cc1 [Pectolinarin] | – | 63.6
C(=C\c1ccccc1)/CN1CCN(C(c2ccccc2)c2ccccc2)CC1 [Cinnarizine] | 71.5 ± 20 | –
CO[C@H]1/C=C/O[C@@]2(C)Oc3c(C)c(O)c4c(O)c(cc(O)c4c3C2=O)NC(=O)/C(C)=C\C=C\[C@H](C)[C@H](O)[C@@H](C)[C@@H](O)[C@@H](C)[C@H](OC(C)=O)[C@@H]1C | 85.2 | –
CO[C@H]1/C=C/O[C@@]2(C)Oc3c(C)c(O)c4c(O)c(cc(O)c4c3C2=O)NC(=O)/C(C)=C\C=C\[C@H](C)[C@H](O)[C@@H](C)[C@@H](O)[C@@H](C)[C@H](OC(C)=O)[C@@H]1C [Rifamycin SV sodium salt] | – | 68.7
O=C(C1CCCCC1)N1CC(=O)N2CCc3ccccc3C2C1 (configuration not stated) [Praziquantel] | 91.9 ± 19 | –
O=C(C1CCCCC1)N1CC(=O)N2CCc3ccccc3C2C1 (configuration not stated) | 90.1 | –
OC[C@H]1O[C@H](O[C@]2(CCl)O[C@H](CCl)[C@@H](O)[C@@H]2O)[C@H](O)[C@@H](O)[C@H]1Cl | 88 | –
O=C(O)c1cc(=O)cc(C(=O)O)[nH]1 [Chelidamic acid] | 85.8 | –
Nc1nc2ccc(OC(F)(F)F)cc2s1 [Riluzole] | 106 ± 3.7 | –
Nc1nc2ccc(OC(F)(F)F)cc2s1 [Riluzole hydrochloride] | 88.8 | –
COc1ccc2c(c1)c(CC(=O)O)c(C)n2C(=O)c1ccc(Cl)cc1 | 91.7 | –
COc1ccc2c(c1)c(CC(=O)O)c(C)n2C(=O)c1ccc(Cl)cc1 [Indomethacin] | 93.1 ± 18 | –
COc1ccc(-c2cc(=O)c3ccc4ccccc4c3o2)cc1OC [3',4'-Dimethoxy-a-naphthoflavone] | – | 98.3
CCOC(=O)C1(CCCCCCOc2ccc(Cl)cc2)CO1 (configuration not stated) | 93.9 | –
CC(C)(C)NCC(O)COc1cccc2c1CCC(=O)N2 (configuration not stated) [Carteolol hydrochloride] | 65.6 | –
C=C1c2c(Cl)ccc(O)c2C(=O)C2=C(O)[C@]3(O)C(=O)C(C(N)=O)=C(O)[C@@H](N(C)C)[C@@H]3[C@@H](O)[C@H]12.O=C(O)c1cc(S(=O)(=O)O)ccc1O [Meclocycline sulfosalicylate] | 83.3 | –
C=C1c2c(Cl)ccc(O)c2C(=O)C2=C(O)[C@]3(O)C(=O)C(C(N)=O)=C(O)[C@@H](N(C)C)[C@@H]3[C@@H](O)[C@H]12.O=C(O)c1cc(S(=O)(=O)O)ccc1O | 100 | –
CC(C)C[C@H](NC(=O)[C@H](O)[C@H](N)Cc1ccccc1)C(=O)O [Epibestatin hydrochloride] | 92.5 | –
CC(=O)NCCCS(=O)(=O)O | 97.7 | –

SMILES | HMGB1-induced TNF-alpha production (compound concentration: 3 uM) [%] | HMGB1-induced TNF-alpha production [1] [%]
COc1ccc2c(c1OC)C(=O)O[C@@H]2[C@H]1c2c(cc3c(c2OC)OCO3)CCN1C [Noscapine hydrochloride hydrate  (Narcotine)] | – | 73.2
COc1ccc2c(c1OC)C(=O)O[C@@H]2[C@H]1c2c(cc3c(c2OC)OCO3)CCN1C [Noscapine hydrchloride] | 123 | –
COc1ccc2c(c1OC)C(=O)O[C@@H]2[C@H]1c2c(cc3c(c2OC)OCO3)CCN1C | 100 | –
CCCCCCCCCCCCCCCC(=O)OC(CC(=O)O)C[N+](C)(C)C (racemic) [Palmitoyl-DL-Carnitine chloride] | 98.4 | –
CCOC(=O)O[C@]1(C(=O)COC(=O)CC)CC[C@H]2[C@@H]3CCC4=CC(=O)C=C[C@]4(C)[C@H]3[C@@H](O)C[C@@]21C [Prednicarbate] | 56.3 | –
CC(=O)NS(=O)(=O)c1ccc(NC(=O)c2ccccc2C(=O)O)cc1 | 101 | –
CC[C@H](C)[C@H](N)C1=N[C@H](C(=O)N[C@@H](CC(C)C)C(=O)N[C@H](CCC(=O)O)C(=O)N[C@H](C(=O)N[C@H]2CCCCNC(=O)[C@H](CC(N)=O)NC(=O)[C@@H](CC(=O)O)NC(=O)[C@H](Cc3cnc[nH]3)NC(=O)[C@@H](Cc3ccccc3)NC(=O)[C@H]([C@@H](C)CC)NC(=O)[C@@H](CCCN)NC2=O)[C@@H](C)CC)CS1 | 92.2 | –
CC[C@H](C)[C@H](N)C1=N[C@H](C(=O)N[C@@H](CC(C)C)C(=O)N[C@H](CCC(=O)O)C(=O)N[C@H](C(=O)N[C@H]2CCCCNC(=O)[C@H](CC(N)=O)NC(=O)[C@@H](CC(=O)O)NC(=O)[C@H](Cc3cnc[nH]3)NC(=O)[C@@H](Cc3ccccc3)NC(=O)[C@H]([C@@H](C)CC)NC(=O)[C@@H](CCCN)NC2=O)[C@@H](C)CC)CS1 [Bacitracin] | 111 | –
O=C(CCc1ccc(O)cc1)c1c(O)cc(O)cc1O [Phloretin] | 110 | 85.1 ± 20
CN1CCN(CCCN2c3ccccc3Sc3ccc(C(F)(F)F)cc32)CC1 [Trifluoperazine 2HCl] | 83.2 | –
CN1CCN(CCCN2c3ccccc3Sc3ccc(C(F)(F)F)cc32)CC1 [Trifluoperazine dihydrochloride] | 87 ± 11 | –
CN(C)CCN1C(=O)c2ccccc2N(C)c2ccccc21 [Dibenzepine hydrochloride] | 75.8 | –
COc1ccc(OC)c(C(O)CNC(=O)CN)c1 (configuration not stated) [Midodrine hydrochloride] | 54 | –
COc1ccc(OC)c(C(O)CNC(=O)CN)c1 (configuration not stated) | 88.9 | –
CNC[C@H](O)c1ccc(O)c(O)c1 [(-)-Epinephrine bitartrate] | 48.4 | –
CNC[C@H](O)c1ccc(O)c(O)c1 | 49.2 | –
CN(C(=O)C(Cl)Cl)c1ccc(OC(=O)c2ccco2)cc1 [Diloxanide furoate] | 94.5 | –
CN(C(=O)C(Cl)Cl)c1ccc(OC(=O)c2ccco2)cc1 | 84.6 ± 8.8 | –
Nc1ccn([C@H]2CC[C@@H](CO)O2)c(=O)n1 | 109 | –
Nc1ccn([C@H]2CC[C@@H](CO)O2)c(=O)n1 [2',3'-Dideoxycytidine] | – | 83.2
Nc1ccn([C@H]2CC[C@@H](CO)O2)c(=O)n1 [2',3'-dideoxycytidine] | 85.3 | –
Nc1ccn([C@H]2CC[C@@H](CO)O2)c(=O)n1 [Zalcitabine] | 103 | –
Nc1ccn([C@H]2CC[C@@H](CO)O2)c(=O)n1 [2',3' - Dideoxycytidine] | 98.4 | –

Quoted from the listing:
In HMGB1-induced TNF-alpha production (compound concentration: 3 uM) [%], O=C(CCc1ccc(O)cc1)c1c(O)cc(O)cc1O [Phloretin] is listed with 110
In HMGB1-induced TNF-alpha production [1] [%], COc1ccc2c(c1OC)C(=O)O[C@@H]2[C@H]1c2c(cc3c(c2OC)OCO3)CCN1C [Noscapine hydrochloride hydrate  (Narcotine)] is listed with 73.2
In HMGB1-induced TNF-alpha production (compound concentration: 3 uM) [%], COc1ccc2c(c1OC)C(=O)O[C@@H]2[C@H]1c2c(cc3c(c2OC)OCO3)CCN1C [Noscapine hydrchloride] is listed with 123
